# Results are given in words; binding and its absence hold for the method and conditions named. Some entries that bind do so weakly or less than the wild type.
# The chains behind the UniProt entries cited, without tags or fusion partners. Where a name states a change or a piece, a line headed by the entry shows the natural chain unless it says otherwise. A line that says so, or that is headed by a name, gives the form on record, which may keep a tag or linker. Residues count along the entry.
# UniProt P10415: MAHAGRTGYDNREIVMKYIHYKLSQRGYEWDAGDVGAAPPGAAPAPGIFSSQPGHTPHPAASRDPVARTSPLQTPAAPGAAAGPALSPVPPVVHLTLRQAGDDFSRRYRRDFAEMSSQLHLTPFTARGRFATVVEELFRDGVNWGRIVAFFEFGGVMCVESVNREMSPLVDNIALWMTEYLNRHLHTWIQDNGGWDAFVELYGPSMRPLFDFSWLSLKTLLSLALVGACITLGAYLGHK
# human BCL-XL (residues 1-210, with 27-81 and 210-233 removed) (Q07817, form named): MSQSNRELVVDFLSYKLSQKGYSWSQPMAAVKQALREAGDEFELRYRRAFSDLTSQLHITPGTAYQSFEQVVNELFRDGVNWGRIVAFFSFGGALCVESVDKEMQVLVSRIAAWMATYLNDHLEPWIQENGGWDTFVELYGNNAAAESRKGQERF
# UniProt Q07820, residues 152-308: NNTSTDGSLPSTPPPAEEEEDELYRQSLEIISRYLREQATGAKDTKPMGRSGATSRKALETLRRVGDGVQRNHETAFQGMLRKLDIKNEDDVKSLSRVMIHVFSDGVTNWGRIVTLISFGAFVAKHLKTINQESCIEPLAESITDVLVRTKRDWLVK
# Experiments:
# [1] = molecular target: chimeric human BCL-2 (residues 1-50 and 92-207, residues 35-50 replaced with residues 33-48 of BCL-XL) (human) (UniProt P10415+Q07817); assay: fluorescence polarisation; competition: cp2-F/BCL-2 complexes (20/400 nM) or cp3-F/BCL-XL complexes (20/600 nM) treated with unlabelled peptides from 1.0 nM to 30.0 uM; 1x PBS pH 7.4, room temperature, 10 min; Ki calculated from EC50, one-site competitive model; both purified
# [2] = molecular target: human BCL-XL (residues 1-210, with 27-81 and 210-233 removed) (human) (UniProt Q07817); assay: as above
# [3] = molecular target: MCL-1 (residues 152-308) (human) (UniProt Q07820); assay: SPR; Biacore T200; biotinylated proteins immobilised on a CAP sensor chip; peptides flowed in multiple cycles (25-12800 nM, depending on the peptides) at 30 uL/min; 10 mM PBS, 50 uM EDTA, 0.05% Tween-20, 25 °C; affinity fitting, 1:1 binding model; both purified
# [4] = molecular target: T1, BFL-1 (residues 1-151) (human) (UniProt Q16548); assay: as above
# T1 sequence (chain, biotin (biotinylated for SPR; site not stated)): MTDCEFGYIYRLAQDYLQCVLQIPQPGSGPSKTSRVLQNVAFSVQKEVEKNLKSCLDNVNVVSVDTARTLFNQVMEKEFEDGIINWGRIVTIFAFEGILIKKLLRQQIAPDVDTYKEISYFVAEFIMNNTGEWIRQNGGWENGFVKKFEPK
Binder,binding [1],binding [2],binding [3],binding [4]
CPIRYEWDEFCGK (FITC on the amino group of the C-terminal lysine; modified by ClAc-3) [cp2-F],binds,–,–,–
CPIRYPWDVECGK (FITC on the amino group of the C-terminal lysine; modified by ClAc-3) [cp3-F],–,binds,–,–
"CPIRYEWDEFC (cyclised through a 2-aryl-4,5-dihydrothiazole (ADT) linker (cADT)) [cp2]",–,–,"no binding (tested: 25-12800 nM, depending on the peptides)","no binding (tested: 25-12800 nM, depending on the peptides)"
"CPIRYPWDVEC (cyclised through a 2-aryl-4,5-dihydrothiazole (ADT) linker (cADT)) [cp3]",–,–,"no binding (tested: 25-12800 nM, depending on the peptides)","no binding (tested: 25-12800 nM, depending on the peptides)"
